{"source": "PubChem BioAssay AID652243, Drosophila RNAi Screening Center, 2013", "assay": "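Knock-downs that decrease or increase androgen receptor reporter signal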 (primary screen)", "cell system": "Drosophila S2R+ cells", "reagents": "long dsRNA against Drosophila genes", "timing": "72 h (48 h, then 24 h hormone)", "conditions": "synthetic androgen R1881 at 10 nM for 24 h", "measured": "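Firefly light from an androgen-responsive reporter and Renilla control light per well, raw and unnormalised, for each of two replicates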", "reading the numbers": "firefly reporter light: higher = more light from androgen-responsive reporter; Renilla control light: higher = more constitutive control signal (cell number, transfection)", "hit rule": "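Hit when the log firefly-to-Renilla ratio dropped or increased by a fixed fold versus the mean of GFP or LacZ controls across duplicate plates; lowering cut given as 1.5 and as 3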", "meaning of the calls": "active = hit: reporter lowered or raised; inactive = no hit", "note": "The deposit covers about 24,000 reagents; below is a random part of those that have a named target and a result. Over the whole deposit, 246 (1%) were called active. 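Plates not normalised; calls are printed but the firefly/Renilla ratio behind them is not deposited; fold cut for lowering reported inconsistently.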 Raw values are not corrected between plates. Not given: the amount of reagent."}
{"gene knocked down": "CG34273", "dsRNA": "DRSC38819", "firefly reporter light, replicate 1": 7.54e5, "firefly reporter light, replicate 2": 5.80e5, "Renilla control light, replicate 1": 1.59e6, "Renilla control light, replicate 2": 1.21e6, "Call": "inactive"}
{"gene knocked down": "CG14374", "dsRNA": "DRSC14834", "firefly reporter light, replicate 1": 1.49e5, "firefly reporter light, replicate 2": 71551, "Renilla control light, replicate 1": 1.66e6, "Renilla control light, replicate 2": 1.44e6, "Call": "inactive"}
{"gene knocked down": "Aven", "dsRNA": "DRSC19693", "firefly reporter light, replicate 1": 7.61e5, "firefly reporter light, replicate 2": 6.62e5, "Renilla control light, replicate 1": 3.72e6, "Renilla control light, replicate 2": 3.69e6, "Call": "inactive"}
{"gene knocked down": "nau", "dsRNA": "DRSC17011", "firefly reporter light, replicate 1": 1.67e5, "firefly reporter light, replicate 2": 1.04e5, "Renilla control light, replicate 1": 1.68e6, "Renilla control light, replicate 2": 1.68e6, "Call": "inactive"}
{"gene knocked down": "CG17104", "dsRNA": "DRSC02573", "firefly reporter light, replicate 1": 1.02e6, "firefly reporter light, replicate 2": 1.65e6, "Renilla control light, replicate 1": 2.19e6, "Renilla control light, replicate 2": 2.88e6, "Call": "inactive"}
{"gene knocked down": "CG17104", "dsRNA": "DRSC29692", "firefly reporter light, replicate 1": 2.21e5, "firefly reporter light, replicate 2": 2.55e5, "Renilla control light, replicate 1": 1.06e6, "Renilla control light, replicate 2": 1.12e6, "Call": "inactive"}
{"gene knocked down": "EndoGI", "dsRNA": "DRSC01964", "firefly reporter light, replicate 1": 1.29e5, "firefly reporter light, replicate 2": 1.48e5, "Renilla control light, replicate 1": 1.45e6, "Renilla control light, replicate 2": 1.93e6, "Call": "inactive"}
{"gene knocked down": "AhcyL1", "dsRNA": "DRSC08647", "firefly reporter light, replicate 1": 89728, "firefly reporter light, replicate 2": 75662, "Renilla control light, replicate 1": 1.31e6, "Renilla control light, replicate 2": 9.53e5, "Call": "inactive"}
{"gene knocked down": "AhcyL1", "dsRNA": "DRSC25573", "firefly reporter light, replicate 1": 6.03e5, "firefly reporter light, replicate 2": 2.69e5, "Renilla control light, replicate 1": 3.90e5, "Renilla control light, replicate 2": 4.75e5, "Call": "inactive"}
{"gene knocked down": "CG4301", "dsRNA": "DRSC19886", "firefly reporter light, replicate 1": 1.82e5, "firefly reporter light, replicate 2": 2.21e5, "Renilla control light, replicate 1": 2.63e6, "Renilla control light, replicate 2": 2.28e6, "Call": "inactive"}
{"gene knocked down": "CG2608", "dsRNA": "DRSC02709", "firefly reporter light, replicate 1": 5.95e5, "firefly reporter light, replicate 2": 7.60e5, "Renilla control light, replicate 1": 1.06e6, "Renilla control light, replicate 2": 1.21e6, "Call": "inactive"}
{"gene knocked down": "CG4576", "dsRNA": "DRSC15604", "firefly reporter light, replicate 1": 1.55e5, "firefly reporter light, replicate 2": 1.84e5, "Renilla control light, replicate 1": 2.07e6, "Renilla control light, replicate 2": 2.24e6, "Call": "inactive"}
{"gene knocked down": "CG4576", "dsRNA": "DRSC26364", "firefly reporter light, replicate 1": 2.78e5, "firefly reporter light, replicate 2": 2.84e5, "Renilla control light, replicate 1": 4.59e5, "Renilla control light, replicate 2": 4.61e5, "Call": "inactive"}

Entries listed so far whose target name starts with A or a:
{"gene knocked down": "Aven", "dsRNA": "DRSC19693", "firefly reporter light, replicate 1": 7.61e5, "firefly reporter light, replicate 2": 6.62e5, "Renilla control light, replicate 1": 3.72e6, "Renilla control light, replicate 2": 3.69e6, "Call": "inactive"}
{"gene knocked down": "AhcyL1", "dsRNA": "DRSC08647", "firefly reporter light, replicate 1": 89728, "firefly reporter light, replicate 2": 75662, "Renilla control light, replicate 1": 1.31e6, "Renilla control light, replicate 2": 9.53e5, "Call": "inactive"}
{"gene knocked down": "AhcyL1", "dsRNA": "DRSC25573", "firefly reporter light, replicate 1": 6.03e5, "firefly reporter light, replicate 2": 2.69e5, "Renilla control light, replicate 1": 3.90e5, "Renilla control light, replicate 2": 4.75e5, "Call": "inactive"}
